No constants are given. Whether binding was seen depends on the method and setting. Some binding calls cover weakened binding; strength is not graded here.
Target: human fXI with the human prekallikrein A4 domain (human) (UniProt P03951+P03952)
Test: immunoblot of fXI/PK chimeras with 14E11 (FIG. 10A)

Chains of the proteins cited; added tags and fusions are not shown. Lines headed by an entry give the natural chain unless they say otherwise; changes in a name come on top.
UniProt P03951: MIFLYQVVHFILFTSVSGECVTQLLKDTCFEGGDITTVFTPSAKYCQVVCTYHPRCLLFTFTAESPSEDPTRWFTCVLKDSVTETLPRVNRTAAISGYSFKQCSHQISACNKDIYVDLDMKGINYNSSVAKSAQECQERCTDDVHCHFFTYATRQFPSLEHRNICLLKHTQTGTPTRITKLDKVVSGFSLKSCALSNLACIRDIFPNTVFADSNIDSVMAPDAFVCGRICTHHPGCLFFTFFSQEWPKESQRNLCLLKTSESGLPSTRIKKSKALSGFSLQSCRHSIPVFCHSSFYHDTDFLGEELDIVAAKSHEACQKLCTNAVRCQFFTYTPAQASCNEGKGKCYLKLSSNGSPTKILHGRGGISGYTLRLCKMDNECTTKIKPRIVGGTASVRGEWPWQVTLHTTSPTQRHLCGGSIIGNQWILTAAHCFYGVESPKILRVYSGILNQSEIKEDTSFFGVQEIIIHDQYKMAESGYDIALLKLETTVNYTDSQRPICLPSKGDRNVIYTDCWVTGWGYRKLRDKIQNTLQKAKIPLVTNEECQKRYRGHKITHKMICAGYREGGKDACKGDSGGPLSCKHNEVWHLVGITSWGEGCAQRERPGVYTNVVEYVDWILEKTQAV
UniProt P03952: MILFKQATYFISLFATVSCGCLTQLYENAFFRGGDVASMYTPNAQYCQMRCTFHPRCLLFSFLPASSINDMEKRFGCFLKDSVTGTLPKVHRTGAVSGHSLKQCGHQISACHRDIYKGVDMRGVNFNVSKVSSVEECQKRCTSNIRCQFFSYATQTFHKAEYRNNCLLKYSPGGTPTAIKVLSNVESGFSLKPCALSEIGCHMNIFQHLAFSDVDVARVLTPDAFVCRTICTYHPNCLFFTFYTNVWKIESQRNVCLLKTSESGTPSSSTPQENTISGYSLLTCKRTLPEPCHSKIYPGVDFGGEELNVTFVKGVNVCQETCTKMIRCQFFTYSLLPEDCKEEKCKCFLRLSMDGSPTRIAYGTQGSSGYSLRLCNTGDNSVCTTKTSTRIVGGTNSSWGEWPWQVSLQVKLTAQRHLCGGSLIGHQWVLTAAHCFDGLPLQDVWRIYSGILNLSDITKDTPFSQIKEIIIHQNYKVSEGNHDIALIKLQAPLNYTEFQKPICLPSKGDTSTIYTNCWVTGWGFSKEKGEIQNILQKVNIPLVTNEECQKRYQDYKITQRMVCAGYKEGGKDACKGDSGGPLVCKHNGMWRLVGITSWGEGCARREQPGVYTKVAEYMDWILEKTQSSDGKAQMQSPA

B1: monoclonal antibody 14E11 (antibody, V domains shown)
VH: QVQLEESGPGLVAPSQSLSITCTVSGFSLTGYGIYWVRQPPGKGLEWLGMIWGDGRTDYNSALKSRLSISKDNSKSQVFLKMNSLQTDDTARYYCARDYYGSKDYWGQGTTLTVSS
VL: DIVMTQSHKFMSTSVGDRVSITCKASQDVSTAVAWYQQKPGQSPKLLIYLTSYRNTGVPDRFTGSGSGTDFTFTISSVQAEDLAVYYCQQHYKTPYSFGGGTKLERLR
notes: also called anti-murine fXI IgG 14E11; anti-fXI IgG 14E11
For B1, the binding was “binds”.
